Some results were stated once for a whole list of compounds, not compound by compound.
Tests used:
A. viteae = experiment: Filarial nematodes Av model (Example D); details: gerbils infected s.c. with A. viteae larvae; oral gavage, dose between 1×3 mg/kg and 5×32 mg/kg; necropsy 12 weeks after infection
[1] = tested on: T. colubriformis and H. contortus; experiment: Gastro intestinal nematodes jird model, both worm species (Example C); details: jirds infected with T. colubriformis and H. contortus; oral, Day 6 after infection, dose between 1×3 mg/kg and 1×32 mg/kg; necropsy three days after treatment

| Structure (SMILES) | efficacy (% reduction in worm numbers vs placebo treated group, Abbot's formula) (A. viteae) [%] | efficacy (% reduction in worm numbers vs placebo treated group, Abbot's formula) [1] [%] |
| --- | --- | --- |
| O=C(N[C@H]1CCOc2ccccc21)c1cnc2c(-c3cc(Cl)cc(Cl)c3)nccc2c1N1CCOCC1 [Example 1.9, N-[(4S)-chroman-4-yl]-8-(3,5-dichlorophenyl)-4-morpholino-1,7-naphthyridine-3-carboxamide] | > 80 | > 90 |
| CON(C)c1c(C(=O)N[C@H]2CCOc3ccccc32)cnc2c(-c3cc(Cl)cc(Cl)c3)nccc12 [Example 1.31, N-[(4S)-chroman-4-yl]-8-(3,5-dichlorophenyl)-4-[methoxy(methyl)amino]-1,7-naphthyridine-3-carboxamide] | > 80 | > 90 |
| CN(C)c1c(C(=O)N[C@H]2CCCc3ccccc32)cnc2c(-c3cc(Cl)cc(Cl)c3)nccc12 [Example 1.32, 8-(3,5-dichlorophenyl)-4-(dimethylamino)-N-[(1S)-tetralin-1-yl]-1,7-naphthyridine-3-carboxamide] | > 80 |  |
| CN(C)c1c(C(=O)N[C@H]2CCOc3ccccc32)cnc2c(-c3cc(Cl)cc(Cl)c3)nccc12 [Example 1.1, N-[(4S)-chroman-4-yl]-8-(3,5-dichlorophenyl)-4-(dimethylamino)-1,7-naphthyridine-3-carboxamide] | > 80 | > 90 |
| CC(C)c1c(C(=O)N[C@H]2CCOc3ccccc32)cnc2c(-c3cc(Cl)cc(Cl)c3)nccc12 [Example 1.42, N-[(4S)-chroman-4-yl]-8-(3,5-dichlorophenyl)-4-isopropyl-1,7-naphthyridine-3-carboxamide] | > 80 |  |
| CN(C)c1c(C(=O)N[C@H]2CCc3ccccc32)cnc2c(-c3cc(Cl)cc(Cl)c3)nccc12 [Example 1.21, 8-(3,5-dichlorophenyl)-4-(dimethylamino)-N-[(1S)-indan-1-yl]-1,7-naphthyridine-3-carboxamide] |  | > 90 |
| CN(C)c1c(C(=O)N[C@H]2CCOc3ccccc32)ccc2c(-c3cc(Cl)cc(Cl)c3)cccc12 [Example 5.1] | > 80 |  |
| O=C(N[C@H]1CCOc2ccccc21)c1cnc2c(-c3cc(Cl)cc(Cl)c3)nccc2c1C1CC1 [Example 1.20, N-[(4S)-chroman-4-yl]-4-cyclopropyl-8-(3,5-dichlorophenyl)-1,7-naphthyridine-3-carboxamide] | > 80 | > 90 |

— patent US20260209228A1 (Elanco Tiergesundheit AG, priority 2018, published 2026)
